A negative result means that nothing was seen under these conditions. At least one verdict was read from the data and is not stated in words by the source.

By UniProt entry, the sequences of proteins in these tests, tags left out. Residues count along the entry.
UniProt Q15233, 146-312, stated change not applied: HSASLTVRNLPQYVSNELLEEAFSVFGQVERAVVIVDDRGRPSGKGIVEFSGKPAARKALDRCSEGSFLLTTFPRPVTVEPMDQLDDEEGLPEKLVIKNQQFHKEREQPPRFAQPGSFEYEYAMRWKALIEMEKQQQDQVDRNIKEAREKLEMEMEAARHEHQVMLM

Data on one sequence can be found in PMC8754649.

This data set addresses NONOΔRRM1 (human) (UniProt Q15233). Nature of the data set: MST. The note with it: 1 mg/ml heparin; 5' nucleotide is dT, remainder ribo; MST: 20 mM Tris-Cl pH 7.5, 250 mM KCl, 50 mM L-proline, 0.5 mM EDTA, 0.05% Tween 20, 1 mg/ml heparin; oligo 100 nM (polyG 500 nM); 15 min on ice; recombinant protein; residues 146-312; protein details: N-terminal His6, removed by TEV; label: 5'-6-FAM.

On to TUUUUUUUUU [polyU (dTUUUUUUUUU)], for which the binding result is “no binding”.
